In all, about 580,000 compounds went through this assay and about 6,100 (1.1%) were called active. A call without a number means that no potency is given here. The shares of active, inactive and inconclusive entries below differ from those in the screen. Calls follow the shape of the dose curve; as a rule, active = well fitted inhibition curve with a large enough effect; inconclusive = small, poorly fitted or top-dose-only effect, or another doubt; inactive = no such curve, though single readings can be large or run the other way. A potency beside an inconclusive call is a rough fit, not a confirmed value.
The compounds below were run against Polyunsaturated fatty acid lipoxygenase ALOX12 (Homo sapiens) (UniProt P18054) (assay: Primary qHTS assay for inhibitors of human arachidonate 12S-lipoxygenase (ALOX12): Round 2). Conditions: purified 12hLO, xylenol orange hydroperoxide absorbance; series mostly up to 108 µM.
Method in brief: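 Purified human 12hLO (150 nM final) in 25 mM Hepes, 0.01% Triton X-100, pH 7.0 was preincubated 15 min at room temperature with compound. Then 40 uM arachidonic acid was added, 30 min. Hydroperoxide was read by Fe-XO absorbance ratio 573/405 nm.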
Potency is read from the fitted curve at half-maximal effect.

Protein sequences, listed by entry. Tags and fused reporters are not part of them. Lines headed by an entry give the natural chain unless they say otherwise; changes in a name come on top.
UniProt P18054: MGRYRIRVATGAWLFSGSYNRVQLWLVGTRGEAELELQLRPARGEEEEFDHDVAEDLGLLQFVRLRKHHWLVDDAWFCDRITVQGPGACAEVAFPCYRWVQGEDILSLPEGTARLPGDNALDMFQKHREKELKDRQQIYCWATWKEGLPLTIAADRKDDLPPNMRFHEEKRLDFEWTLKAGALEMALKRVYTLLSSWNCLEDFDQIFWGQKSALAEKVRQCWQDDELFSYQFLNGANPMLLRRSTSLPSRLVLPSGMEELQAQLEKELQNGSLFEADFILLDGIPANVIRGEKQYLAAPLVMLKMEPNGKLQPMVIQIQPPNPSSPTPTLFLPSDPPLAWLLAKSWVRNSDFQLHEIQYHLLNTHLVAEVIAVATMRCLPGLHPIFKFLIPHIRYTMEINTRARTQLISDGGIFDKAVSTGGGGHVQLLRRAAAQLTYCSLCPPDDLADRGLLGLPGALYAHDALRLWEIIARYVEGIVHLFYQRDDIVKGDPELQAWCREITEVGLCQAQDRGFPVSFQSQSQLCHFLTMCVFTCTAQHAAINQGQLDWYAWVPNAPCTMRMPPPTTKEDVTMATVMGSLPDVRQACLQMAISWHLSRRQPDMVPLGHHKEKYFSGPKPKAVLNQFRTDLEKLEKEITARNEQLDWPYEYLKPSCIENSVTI

| SMILES | Potency |
| --- | --- |
| CC1CCCN(CCCNC(=O)c2ccc3c(c2)N(Cc2ccc(F)cc2)C(=O)c2ccccc2S3=O)C1 (stereo unspecified) | inconclusive: 44.7 µM [inhibitor, partial curve, poor fit] |
| COc1cc(CC(=O)OCC(=O)Nc2ccccc2OC(F)F)cc(OC)c1OC | inactive |
| Cc1ccccc1OCc1nc2ccccc2n1C | inconclusive: 35.5 µM [inhibitor, partial curve, poor fit] |
| CCC(CC)c1nnc(NC(=O)c2ccco2)s1 | inactive |
| CC1=C(C(=O)OCC(F)(F)C(F)(F)F)C(c2cc3c(cc2Br)OCO3)NC(=O)N1 (stereo unspecified) | inactive |
| Cc1ccccc1NC(=O)CSc1nc(N2CCCC2)c2c(c1C#N)CCCC2 | inactive |
| Cc1ccc(NC(/C=C/N(C)C)=C/C(=O)C(F)(F)F)c(C)c1 | inactive |
| COc1ccccc1CNC(=O)CS(=O)Cc1nc(-c2ccc(OC)c(OC)c2)oc1C (stereo unspecified) | inactive |
| CCc1ccccc1Nc1nc(N)c(C(=O)c2ccc(C)cc2)s1 | inconclusive: 50.1 µM [inhibitor, partial curve, poor fit] |
| O=C1C(Cl)=C(N2CCOCC2)C(=O)N1c1cccc(C(F)(F)F)c1 | inactive |
| Cc1ccc(Cl)c(OCC(=O)c2ccc3c(c2)N(CCCC(=O)N2CCOCC2)C(=O)CO3)c1 | inactive |
| CCc1cccc(C)c1NC(=O)CCc1ncc(-c2ccc(F)cc2F)o1 | inconclusive: 126 µM [inhibitor, single point] |
| Cc1cc(F)cc(-c2cc(C(=O)NCC3CCCCC3)[nH]n2)c1 | inconclusive: 44.7 µM [inhibitor, partial curve, poor fit] |
| Nc1cccc2[nH]c(=O)c3ccccc3c12 | inactive |
| COc1ccc(Nc2cc(C)c3cc(NC(=O)Cc4c(F)cccc4Cl)ccc3n2)cc1 | inconclusive: 50.1 µM [inhibitor, partial curve] |
| CCOc1cc(C2C(C#N)=C(N)Oc3cc4c(cc32)OCO4)c(Br)cc1OC (stereo unspecified) | inconclusive: 28.2 µM [inhibitor, partial curve, poor fit] |
| Cc1cc(Cl)n2c(nc3ccccc32)c1C#N | inactive |
| CC(Oc1ccc(C(C)C)cc1)C(N)=O (stereo unspecified) | inactive |
| CCCN(CCC)S(=O)(=O)c1cc(CN2C(=O)c3cccnc3C2=O)ccc1OC | inconclusive: 39.8 µM [inhibitor, partial curve, poor fit] |
| CC(=O)Nc1cccc(C(=O)N2CCC(n3cc(-c4nc(C)no4)nn3)CC2)c1 | inconclusive: 20 µM [inhibitor, full curve] |
| CCc1nn2c(=O)cc(CNc3ccccc3C(=O)NC3CC3)nc2s1 | inconclusive: 0.794 µM [inhibitor, full curve, poor fit] |

A different layout for part of the listing above.
SMILES | Potency
CC(=O)Nc1cccc(C(=O)N2CCC(n3cc(-c4nc(C)no4)nn3)CC2)c1 | inconclusive: 20 µM [inhibitor, full curve]
CCc1nn2c(=O)cc(CNc3ccccc3C(=O)NC3CC3)nc2s1 | inconclusive: 0.794 µM [inhibitor, full curve, poor fit]
